Test results reported in patent US20080160163A1, “Reduction of Digestibility of Phosphorus” (BAYER HEALTHCARE AG, priority 2005, published 2008).

System: adult healthy domestic cats
Settings: even at 4 g per 150 g of the feed
Description: Fifteen adult healthy domestic cats of both genders were individually fed with commercially available regular canned diet (Premium Pate rich in lamb, IAMS Pet Food GmbH & Co containing 0.26% of phosphorus corresponding to 1.13% phosphorus in the dry matter). The aim of the study was to assess the palatability and safety of lanthanum carbonate octahydrate especially in high doses. Therefore 10 cats were fed lanthanum carbonate octahydrate in their daily feed ration at increasing doses. The study began with a dose level of about 12-15 g per kg of feed (dry matter). The dose was doubled every two weeks up to a dose level of about 96-120 g per kg of feed (dry matter). Five cats were given the feed without any lanthanum carbonate octahydrate and served as controls.
Palatability was assessed daily by observing the general acceptance of the feed. Tolerability and safety were assessed by measuring the blood serum phosphate levels and body weight at regular intervals as well as by daily observations concerning the health status and the possible occurrence of adverse events.

O.O.O.O.O.O.O.O.O=C([O-])[O-].O=C([O-])[O-].O=C([O-])[O-].[La+3].[La+3] [lanthanum carbonate octahydrate]
acceptance of the diet: 100%
